Source: article PMC8115640
No constants are given. Whether binding was seen depends on the method and setting. In cells and extracts the contact can be indirect. Some results given as binding are weak or reduced against the parent protein; the word gives no strength. Tags and fused reporters may be left off the sequences shown.

Target: T1, P2K1 (DORN1, LecRK-I.9; extracellular ATP receptor), fused to the N-terminal fragment of firefly luciferase (Arabidopsis thaliana) (UniProt Q9LSR8)
T1 sequence: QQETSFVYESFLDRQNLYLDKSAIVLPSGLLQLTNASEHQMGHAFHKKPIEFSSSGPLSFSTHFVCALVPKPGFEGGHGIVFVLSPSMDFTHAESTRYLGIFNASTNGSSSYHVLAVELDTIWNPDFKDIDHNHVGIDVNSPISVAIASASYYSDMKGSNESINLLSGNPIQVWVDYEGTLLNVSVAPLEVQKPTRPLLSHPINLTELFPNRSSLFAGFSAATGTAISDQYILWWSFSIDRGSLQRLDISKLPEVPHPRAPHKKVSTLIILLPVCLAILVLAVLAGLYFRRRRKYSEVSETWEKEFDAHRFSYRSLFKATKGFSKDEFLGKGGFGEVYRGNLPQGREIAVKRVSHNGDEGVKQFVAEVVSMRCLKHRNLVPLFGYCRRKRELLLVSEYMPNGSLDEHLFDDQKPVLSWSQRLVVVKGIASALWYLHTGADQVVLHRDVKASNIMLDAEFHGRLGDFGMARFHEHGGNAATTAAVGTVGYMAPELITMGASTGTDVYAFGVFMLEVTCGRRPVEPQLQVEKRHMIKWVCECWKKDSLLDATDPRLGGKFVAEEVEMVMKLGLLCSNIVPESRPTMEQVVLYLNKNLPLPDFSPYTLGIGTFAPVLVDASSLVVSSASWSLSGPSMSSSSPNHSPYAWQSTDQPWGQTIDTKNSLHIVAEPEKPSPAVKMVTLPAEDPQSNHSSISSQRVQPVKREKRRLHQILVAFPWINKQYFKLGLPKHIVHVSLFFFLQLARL
Assay: split reporter; split-luciferase complementation imaging in N. benthamiana leaves, Agrobacterium infiltration, 48 h, 1 mM D-luciferin; mock or 500 uM ATPγS added, panels at 15 min and 1 h; empty vectors as controls

binding: binds
B1: PAT9 (protein S-acyltransferase 9), fused to the C-terminal fragment of firefly luciferase (enzyme)
chain: MAGRVFEAWKGSNKFLFGGRLIFGPDAWSIPFTFLLIITPVCFFSVFVATHLRRELLPNNAGHVFLVAGVLFTVFVLILLFLTSARDPGIVPRNSHPPEEELCYDTTVSSDGRQTPTVQIPRTKEVMVYGVSVRVKYCDTCMLYRPPRCSHCSICNNCVERFDHHCPWRNYRYFFMFVSSATILCIYIFSMSALYIKVLMDNHQGTVWRAMRESPWAVMLMIYCFISLWFVGGLTGFHLYLISTNQTTYENFRYRSDNRINVYNRGCSNNFFETFCSKVKPSRNDFRAFIKEEPPRNITLATTWERPEEADEENREERRQKVEDDLDIDEDVMKLQQRLNDEEGSDTAHHKIDIDQMRIGSNERAPTIRSEARHGNWGARSNAQEEDVIAGSSVRESRSYAAAEEGR
